This assay concerns the target human CD40 (human) (UniProt P25942). Briefly: co-IP; 2x10^7 CH12.TRAF3+/+ or CH12.TRAF3-/- mouse B cells expressing hCD40 incubated in 1 ml BCM10 for 10 min at 37°C with protein G magnetic beads coated (DSS-conjugated) with anti-hCD40 G28.5 or control MOPC-21 Ab; beads and cells pelleted and lysed; hCD40 immunoprecipitated with the same beads; Western blot. On the technique in general: A western blot detects proteins with antibodies after separation by electrophoresis.

Protein sequences, listed by entry. Tags and fused reporters are not part of them. Residues count along the entry.
UniProt P25942, residues 21-277: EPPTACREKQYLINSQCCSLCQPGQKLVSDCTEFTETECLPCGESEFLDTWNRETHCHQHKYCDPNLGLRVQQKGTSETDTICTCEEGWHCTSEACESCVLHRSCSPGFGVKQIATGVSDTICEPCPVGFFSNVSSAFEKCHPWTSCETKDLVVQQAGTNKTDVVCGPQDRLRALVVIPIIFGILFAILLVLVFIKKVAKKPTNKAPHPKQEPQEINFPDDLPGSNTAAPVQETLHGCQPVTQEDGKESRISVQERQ

This passage reports binding results from PMC3408473.

Results are given in words; binding and its absence hold for the method and conditions named. In cells and extracts the contact can be indirect. Some results given as binding are weak or reduced against the parent protein; the word gives no strength.

B1: TRAF6 (protein, UniProt P70196 1-530)
chain: MSLLNCENSCGSSQSSSDCCAAMAASCSAAVKDDSVSGSASTGNLSSSFMEEIQGYDVEFDPPLESKYECPICLMALREAVQTPCGHRFCKACIIKSIRDAGHKCPVDNEILLENQLFPDNFAKREILSLTVKCPNKGCLQKMELRHLEDHQVHCEFALVNCPQCQRPFQKCQVNTHIIEDCPRRQVSCVNCAVSMAYEEKEIHDQSCPLANIICEYCGTILIREQMPNHYDLDCPTAPIPCTFSVFGCHEKMQRNHLARHLQENTQLHMRLLAQAVHNVNLALRPCDAASPSRGCRPEDPNYEETIKQLESRLVRQDHQIRELTAKMETQSMYVGELKRTIRTLEDKVAEMEAQQCNGIYIWKIGNFGMHLKSQEEERPVVIHSPGFYTGRPGYKLCMRLHLQLPTAQRCANYISLFVHTMQGEYDSHLPWPFQGTIRLTILDQSEALIRQNHEEVMDAKPELLAFQRPTIPRNPKGFGYVTFMHLEALRQGTFIKDDTLLVRCEVSTRFDMGGLRKEGFQPRSTDAGV
B1: the binding result is reported as “binds”.
